Some entries share one result that the patent states for a list of compounds. At least one compound was matched to its structure with a doubt left.
molecular target: DNA-PK (Homo sapiens, UniProt P78527); assay: DNA-PK inhibition assay (radiometric 33P-ATP kinase assay); assay type: biochemical; conditions: 100 μM ATP; competitive tight-binding fit

Protein sequences, listed by entry. Tags and fused reporters are not part of them.
UniProt P78527, whole entry: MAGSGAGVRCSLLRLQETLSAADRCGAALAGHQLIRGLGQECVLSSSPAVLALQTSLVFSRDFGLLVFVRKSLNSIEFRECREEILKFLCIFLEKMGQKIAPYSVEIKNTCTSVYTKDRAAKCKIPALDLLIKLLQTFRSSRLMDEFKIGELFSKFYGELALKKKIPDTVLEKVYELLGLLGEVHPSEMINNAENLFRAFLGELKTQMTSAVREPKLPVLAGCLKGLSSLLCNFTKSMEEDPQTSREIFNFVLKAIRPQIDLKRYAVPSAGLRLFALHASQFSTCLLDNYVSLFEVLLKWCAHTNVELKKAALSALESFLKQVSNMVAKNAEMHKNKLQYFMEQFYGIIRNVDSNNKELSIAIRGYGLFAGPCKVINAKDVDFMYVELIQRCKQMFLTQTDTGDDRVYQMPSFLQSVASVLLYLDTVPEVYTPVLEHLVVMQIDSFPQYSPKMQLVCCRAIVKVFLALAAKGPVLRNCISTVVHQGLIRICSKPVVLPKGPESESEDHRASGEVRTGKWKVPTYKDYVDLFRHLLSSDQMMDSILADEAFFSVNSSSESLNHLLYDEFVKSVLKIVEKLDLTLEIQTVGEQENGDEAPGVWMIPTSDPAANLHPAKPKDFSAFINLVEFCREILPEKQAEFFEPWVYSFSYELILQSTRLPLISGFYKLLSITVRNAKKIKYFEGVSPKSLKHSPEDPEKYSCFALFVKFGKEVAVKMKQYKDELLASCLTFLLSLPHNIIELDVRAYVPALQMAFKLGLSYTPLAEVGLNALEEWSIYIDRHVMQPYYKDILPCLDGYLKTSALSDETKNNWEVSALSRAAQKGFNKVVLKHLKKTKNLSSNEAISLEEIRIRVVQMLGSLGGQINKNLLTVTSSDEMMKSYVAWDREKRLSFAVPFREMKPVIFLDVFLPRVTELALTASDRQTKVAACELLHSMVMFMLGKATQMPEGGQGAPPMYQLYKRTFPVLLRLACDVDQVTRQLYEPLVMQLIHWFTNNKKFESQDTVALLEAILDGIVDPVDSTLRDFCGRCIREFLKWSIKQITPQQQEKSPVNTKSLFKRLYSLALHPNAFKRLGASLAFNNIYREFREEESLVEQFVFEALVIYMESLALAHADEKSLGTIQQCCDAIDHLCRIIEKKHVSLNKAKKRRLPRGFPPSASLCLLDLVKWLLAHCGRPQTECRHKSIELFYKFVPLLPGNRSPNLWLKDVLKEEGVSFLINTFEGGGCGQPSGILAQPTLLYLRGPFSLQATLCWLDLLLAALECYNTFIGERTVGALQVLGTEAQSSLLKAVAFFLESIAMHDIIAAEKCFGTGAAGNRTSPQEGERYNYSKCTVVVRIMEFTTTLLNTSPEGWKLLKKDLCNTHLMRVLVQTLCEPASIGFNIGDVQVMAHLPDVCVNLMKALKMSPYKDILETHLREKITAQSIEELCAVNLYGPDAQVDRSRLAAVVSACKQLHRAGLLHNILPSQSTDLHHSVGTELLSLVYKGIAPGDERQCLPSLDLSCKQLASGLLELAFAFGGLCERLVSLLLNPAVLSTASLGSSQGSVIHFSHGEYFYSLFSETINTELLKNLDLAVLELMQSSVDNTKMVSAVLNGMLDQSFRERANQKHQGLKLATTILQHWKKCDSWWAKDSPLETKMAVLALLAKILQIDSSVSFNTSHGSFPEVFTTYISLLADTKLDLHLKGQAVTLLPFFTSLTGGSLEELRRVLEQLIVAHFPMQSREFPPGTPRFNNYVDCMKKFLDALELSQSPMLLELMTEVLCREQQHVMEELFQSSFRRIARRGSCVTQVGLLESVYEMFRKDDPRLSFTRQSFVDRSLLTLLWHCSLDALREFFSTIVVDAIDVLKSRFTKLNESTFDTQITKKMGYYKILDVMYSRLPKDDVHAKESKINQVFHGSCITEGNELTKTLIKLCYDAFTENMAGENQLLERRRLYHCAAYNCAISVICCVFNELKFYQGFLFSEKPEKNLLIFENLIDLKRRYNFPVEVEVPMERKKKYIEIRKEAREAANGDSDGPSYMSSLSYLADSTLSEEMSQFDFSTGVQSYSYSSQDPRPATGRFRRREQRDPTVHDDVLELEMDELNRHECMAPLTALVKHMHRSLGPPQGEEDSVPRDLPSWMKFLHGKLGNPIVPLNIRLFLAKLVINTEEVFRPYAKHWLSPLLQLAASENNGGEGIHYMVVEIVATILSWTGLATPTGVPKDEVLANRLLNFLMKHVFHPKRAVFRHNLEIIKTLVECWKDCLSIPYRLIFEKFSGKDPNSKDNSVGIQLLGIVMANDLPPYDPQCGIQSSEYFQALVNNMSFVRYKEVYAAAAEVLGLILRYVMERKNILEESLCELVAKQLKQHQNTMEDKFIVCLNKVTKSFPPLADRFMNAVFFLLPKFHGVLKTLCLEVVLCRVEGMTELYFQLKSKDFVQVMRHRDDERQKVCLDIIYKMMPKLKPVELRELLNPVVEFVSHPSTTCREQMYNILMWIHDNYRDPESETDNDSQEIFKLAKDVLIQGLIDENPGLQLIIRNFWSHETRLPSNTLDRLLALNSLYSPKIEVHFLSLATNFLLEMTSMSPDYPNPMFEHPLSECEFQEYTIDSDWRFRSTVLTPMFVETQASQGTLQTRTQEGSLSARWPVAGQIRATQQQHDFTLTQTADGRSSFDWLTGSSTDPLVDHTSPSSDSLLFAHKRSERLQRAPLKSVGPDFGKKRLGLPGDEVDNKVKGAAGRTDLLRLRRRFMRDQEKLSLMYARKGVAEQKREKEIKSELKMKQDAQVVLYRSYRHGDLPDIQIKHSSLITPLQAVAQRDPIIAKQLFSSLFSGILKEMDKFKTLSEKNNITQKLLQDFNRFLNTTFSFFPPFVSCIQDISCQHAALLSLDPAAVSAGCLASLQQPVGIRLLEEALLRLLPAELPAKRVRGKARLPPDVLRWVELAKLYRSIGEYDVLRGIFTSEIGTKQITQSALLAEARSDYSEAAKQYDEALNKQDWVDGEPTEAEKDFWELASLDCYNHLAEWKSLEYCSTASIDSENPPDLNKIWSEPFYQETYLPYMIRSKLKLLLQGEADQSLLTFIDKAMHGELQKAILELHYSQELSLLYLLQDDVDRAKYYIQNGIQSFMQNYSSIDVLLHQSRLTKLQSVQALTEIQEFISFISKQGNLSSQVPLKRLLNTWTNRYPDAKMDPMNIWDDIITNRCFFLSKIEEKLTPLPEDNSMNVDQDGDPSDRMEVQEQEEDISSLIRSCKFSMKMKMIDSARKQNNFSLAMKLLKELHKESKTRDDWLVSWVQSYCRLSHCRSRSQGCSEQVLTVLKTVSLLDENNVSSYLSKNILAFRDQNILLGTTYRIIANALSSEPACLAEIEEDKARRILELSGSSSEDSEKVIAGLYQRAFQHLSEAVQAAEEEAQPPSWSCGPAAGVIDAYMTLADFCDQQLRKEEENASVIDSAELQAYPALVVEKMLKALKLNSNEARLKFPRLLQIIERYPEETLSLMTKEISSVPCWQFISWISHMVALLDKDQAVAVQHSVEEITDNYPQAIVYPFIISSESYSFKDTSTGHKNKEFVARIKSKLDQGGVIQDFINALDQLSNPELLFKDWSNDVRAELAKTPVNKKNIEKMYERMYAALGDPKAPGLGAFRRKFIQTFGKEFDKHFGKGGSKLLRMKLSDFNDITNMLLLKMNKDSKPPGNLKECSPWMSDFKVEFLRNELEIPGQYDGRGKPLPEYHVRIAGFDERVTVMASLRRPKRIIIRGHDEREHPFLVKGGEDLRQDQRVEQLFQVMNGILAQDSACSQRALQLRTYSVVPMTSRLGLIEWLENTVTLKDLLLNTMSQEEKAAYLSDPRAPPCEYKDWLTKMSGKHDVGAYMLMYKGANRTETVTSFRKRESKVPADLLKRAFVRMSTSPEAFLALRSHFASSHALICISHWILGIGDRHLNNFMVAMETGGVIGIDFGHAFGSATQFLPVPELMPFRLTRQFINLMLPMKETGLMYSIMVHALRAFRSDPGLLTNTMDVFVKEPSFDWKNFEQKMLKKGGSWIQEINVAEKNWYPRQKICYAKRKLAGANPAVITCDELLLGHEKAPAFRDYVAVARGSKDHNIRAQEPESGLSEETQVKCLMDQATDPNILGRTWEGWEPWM

Ki, ≤ 300 nM:
CNC(=O)c1ccnc2c([C@H](C)CNc3cc(-n4ccnc4)ncn3)cccc12 [Compound 743]
Cc1ccc(-c2cc(NC[C@@H](C)c3cccc4c(-c5ccco5)ccnc34)ncn2)cn1 [Compound 692]
CNC(=O)c1ccnc2c([C@H](C)CNc3cc(-c4cnc(C)s4)ncn3)ccc(F)c12 [Compound 827]
CNC(=O)c1c(F)cnc2c([C@H](C)CNc3cc(-c4ccco4)ncn3)cccc12 [Compound 688]
CNC(=O)c1ccnc2c([C@H](C)CNc3cc(-c4ccnc(N5CCCC5=O)c4)ncn3)cccc12 [Compound 893]
CNC(=O)c1c(F)cnc2c([C@H](C)CNc3cc(-c4ccc(CC5CCN(CC(F)F)CC5)nc4)ncn3)cccc12 [Compound 1043]
CNCCNc1cc(-c2cc(NC[C@@H](C)c3ccccc3OC)ncn2)ccn1 [Compound 212]
COc1ccccc1CCNc1cc(-c2cnc(C(=O)N3CCCC3)c(F)c2)ncn1 [Compound 14]
Cc1ncc(-c2cc(NC[C@@H](C)c3cccc4c(C(=O)O)c(F)cnc34)ncn2)cn1 [Compound 668]
CNC(=O)c1c(F)cnc2c([C@H](C)CNc3cc(-c4cnn(CCC(C)C)c4)ncn3)cccc12 [Compound 786]
CNC(=O)c1ccc(C(C)CNc2cc(-c3cnc4c(cnn4C[C@@H](O)CO)c3)ncn2)c(OC)c1 (stereo partly shown) [Compound 225]
COc1cc(C#N)ccc1C(C)CNc1cc(-c2ccc(N3CCN(C(C)=O)CC3)nc2)ncn1 (stereo not shown) [Compound 129]
Cc1ccc(-c2cc(NCC(C)c3cccc4c(C)ncnc34)ncn2)cn1 (stereo not shown) [Compound 838]
Cc1ccc(-c2cc(NCC(C)c3ccccc3OCC3CC3)ncn2)cn1 (stereo not shown) [Compound 186]
COc1ccccc1[C@H](C)CNc1cc(-c2cnc3c(cnn3C3COC3)c2)ncn1 [Compound 179]
COc1ccccc1CCNc1cc(-c2ccnc(N3CCN(C)CC3)c2)ncn1 [Compound 25]
CNC(=O)c1ccnc2c([C@H](C)CNc3cc(-c4ccnc(CO)c4)ncn3)cccc12 [Compound 890]
CNC(=O)c1ccnc2c([C@H](C)CNc3cc(-c4ccc(F)nc4)ncn3)ccc(F)c12 [Compound 907]
CNC(=O)c1ccnc2c([C@H](C)CNc3cc(-c4cnc(C(C)(C)O)c(F)c4)ncn3)cccc12 [Compound 822]
Cc1ccc(-c2cc(NCCc3ccccc3OC(C)C)ncn2)cn1 [Compound 52]
CNC(=O)c1ccnc2c([C@H](C)CNc3cc(-c4cnc(CN(C)C)nc4)ncn3)cccc12 [Compound 885]
Cc1ccc(-c2cc(NCC(C)c3cccc4nsnc34)ncn2)cn1 (stereo not shown) [Compound 398]
CNC(=O)c1ccnc2c([C@H](C)CNc3cc(-c4ccc(C)cc4N)ncn3)cccc12 [Compound 806]
CNC(=O)c1ccnc2c([C@H](C)CNc3cc(-c4ccc5c(c4)CN(C(C)=O)CC5)ncn3)cccc12 [Compound 804]
Cc1ccc(-c2cc(NCC(C)c3csc4nccnc34)ncn2)cn1 (stereo not shown) [Compound 413]
CNC(=O)c1ccnc2c([C@H](C)CNc3cc(-c4ccc(N5C[C@@H]6CCN(C)[C@@H]6C5)nc4)ncn3)cccc12 [Compound 720]
CNC(=O)c1c(F)cnc2c([C@H](C)CNc3cc(-c4cnc(CC5CCN(CC(F)(F)F)CC5)nc4)ncn3)cccc12 [Compound 1048]
CNC(=O)c1c(F)cnc2c([C@H](C)CNc3cc(-c4cnc(CC5CCN(C(C)=O)CC5)nc4)ncn3)cccc12 [Compound 1044]
CNC(=O)c1c(F)cnc2c([C@H](C)CNc3cc(-c4cnc(OC)nc4)ncn3)cccc12 [Compound 1035]
C=CCNc1ccc(-c2cc(NC[C@@H](C)c3ccc(C(=O)NC)cc3OC)ncn2)cn1 [Compound 387]
COc1ccccc1CCNc1cc(-c2ccc(N3CCNCC3)nc2)ncn1 [Compound 17]
CNC(=O)c1ccc(C(C)CNc2cc(-c3cnc4[nH]ncc4c3)ncn2)c(OC)c1 (stereo not shown) [Compound 167]
CNC(=O)c1ccnc2c([C@H](C)CNc3cc(-c4cnc(OC)c(F)c4)ncn3)cccc12 [Compound 881]
CNC(=O)c1ccnc2c([C@H](C)CNc3cc(-c4ccc(NC5CCN(Cc6ccccc6)C5)nc4)ncn3)cccc12 (stereo partly shown) [Compound 701]
COc1ccccc1CCNc1cc(-c2ccc(N3CCN(C(C)=O)CC3)nc2)ncn1 [Compound 16]
CN1CCN(c2ccc(-c3cc(NCCc4cccc5cccnc45)ncn3)cn2)CC1 [Compound 170]
CNC(=O)c1ccnc2c([C@H](C)CNc3cc(-c4cc[nH]n4)ncn3)cccc12 [Compound 745]
CCNc1ccc(-c2cc(NC[C@@H](C)c3cc(F)cc4c(C(=O)NC)ccnc34)ncn2)cn1 [Compound 572]
COc1ccccc1CCNc1cc(-c2ccc(N3CCOCC3)nc2)ncn1 [Compound 15]
CCN1CCN(c2ccc(-c3cc(NC[C@@H](C)c4cccc5c(C(=O)NC)ccnc45)ncn3)cn2)CC1=O [Compound 716]
CNC(=O)c1ccnc2c([C@H](C)CNc3cc(-c4cnc(N)c(F)c4)ncn3)cccc12 [Compound 867]
CCOc1ccccc1CCNc1cc(-c2ccc(N3CC[C@@H](O)C3)nc2)ncn1 [Compound 99]
Cc1ccc(-c2cc(NC[C@@H](C)c3ccnc4c3OCCC4)ncn2)cn1 [Compound 535]
CNC(=O)c1ccnc2c([C@H](C)CNc3cc(-c4cnc(COC(C)C)nc4)ncn3)cccc12 [Compound 1014]
CNC(=O)c1ccc(-c2cc(NC[C@@H](C)c3cccc4c(C(=O)NC)ccnc34)ncn2)cc1F [Compound 807]
CNCCN(C)c1ccc(-c2cc(NC[C@@H](C)c3cccc4c(C(=O)NC)ccnc34)ncn2)cn1 [Compound 706]
CNC(=O)c1c(-n2ccc(C)n2)cnc2c([C@H](C)CNc3cc(-c4ccc(C)nc4)ncn3)cccc12 [Compound 740]
CNC(=O)c1ccnc2c([C@H](C)CNc3cc(-c4ccc(N5CCC6(COC6)C5)nc4)ncn3)cccc12 [Compound 735]
CNC(=O)c1ccc(C(C)CNc2cc(-c3ccc(OC4CN(C(C)=O)C4)nc3)ncn2)c(OC)c1 (stereo not shown) [Compound 327]
CNC(=O)c1ccnc2c([C@H](C)CNc3cc(-c4ccc(N5CCOCC5)cc4)ncn3)cccc12 [Compound 678]
Cc1ccc(-c2cc(NCC(C)c3ccccc3OCc3ccccn3)ncn2)cn1 (stereo not shown) [Compound 185]
Cc1ccc(-c2cc(NCC(C)c3ccccc3OC3CCCC3)ncn2)cn1 (stereo not shown) [Compound 241]
CCOc1ccccc1CCNc1cc(-c2ccc(C(C)=O)s2)ncn1 [Compound 88]
CNC(=O)N1CCOc2c([C@H](C)CNc3cc(-c4ccc(C)nc4)ncn3)cccc21 [Compound 700]
CNc1ncc(-c2cc(NC[C@@H](C)c3ccnc4c3OCC4)ncn2)cn1 [Compound 430, (S)—N-(2-(2,3-dihydrofuro[3,2-b]pyridin-7-yl)propyl)-6-(6-(methylamino)pyridin-3-yl)pyrimidin-4-amine]
CNC(=O)c1ccnc2c([C@H](C)CNc3cc(-c4cnc(C5CCC5)nc4)ncn3)cccc12 [Compound 846]
COCCn1ncc2cc(-c3cc(NCC(C)c4sccc4OC)ncn3)cnc21 (stereo not shown) [Compound 260]
CNC(=O)c1ccc(C(C)CNc2cc(-c3ccc4c(cnn4C4COC4)c3C)ncn2)c(OC)c1 (stereo not shown) [Compound 278]
CNC(=O)c1ncnc2c([C@H](C)CNc3cc(-c4cnc(C)nc4)ncn3)cccc12 [Compound 976]
CC(CNc1cc(-c2cnc3c(cnn3C3CCN(C)CC3)c2)ncn1)c1ccccc1OC1CC1 (stereo not shown) [Compound 145]
CNC(=O)c1ccc([C@H](C)CNc2cc(-c3ccc(N4CCC4)nc3)ncn2)c(OC)c1 [Compound 395]
C[C@H](CNc1cc(-c2ccc3nccnc3c2)ncn1)c1ccnc2c1OCCO2 [Compound 558]
CNC(=O)c1c(N(C)C)cnc2c([C@H](C)CNc3cc(-c4ccc(C)nc4)ncn3)cccc12 [Compound 765]
CNC(=O)c1ccnc2c([C@H](C)CNc3cc(-c4ccc(OC(C)(C)C)cc4)ncn3)cccc12 [Compound 755]
CNC(=O)c1ccc([C@H](C)CNc2cc(-c3ccc(N4CCOCC4)nc3)ncn2)c(OC)c1 [Compound 367]
CNC(=O)c1ncnc2c([C@H](C)CNc3cc(-c4ccc(OC)nc4)ncn3)cccc12 [Compound 1005]
COc1ccccc1[C@H](C)CNc1cc(-c2ccc(NC3CCN(C4CC4)CC3)nc2)ncn1 [Compound 242]
CN1CCN(c2ccc(-c3cc(NCCc4ccccc4O)ncn3)cn2)CC1 [Compound 33]
CNC(=O)c1ccnc2c([C@H](C)CNc3cc(-c4cnc(C)c(OCC(F)F)c4)ncn3)cccc12 [Compound 888]
COC(=O)CCNC(=O)c1ccc(-c2cc(NCCc3ccccc3OC)ncn2)cc1 [Compound 18]
COc1ccccc1[C@H](C)CNc1cc(-c2ccc(F)nc2)ncn1 [Compound 96]
CNC(=O)c1ccnc2c([C@H](C)CNc3cc(-c4ccc(NC(C)=O)cc4)ncn3)cccc12 [Compound 749]
CCOC(=O)c1ccc(-c2cc(NC[C@@H](C)c3cccc4c(C(=O)NC)ccnc34)ncn2)o1 [Compound 795]
CC(=O)N1CCOc2c([C@H](C)CNc3cc(-c4ccc(C)nc4)ncn3)cccc21 [Compound 504]
COc1ncc(-c2cc(NC[C@@H](C)c3ccnc4c3OCCO4)ncn2)cc1C(N)=O [Compound 530]

same assay, conditions: 100 μM ATP; competitive tight-binding fit; listed as compound 704

Ki, ≤ 300 nM:
CCN1CCCC1CNc1ccc(-c2cc(NC[C@@H](C)c3cccc4c(C(=O)NC)ccnc34)ncn2)cn1 (single isomer, unassigned) [Compound 704]
